PubChem BioAssay AID1224828 | NIAID, 2016
Shown is an unselected part of about 17,000 reagents. 762 of them (4.5%) were called active. 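Active calls include both raised and lowered p65 entry, mostly lowered; wells with fewer than 50 cells lack a z-score.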 Raw values vary from plate to plate and are shown uncorrected. Unmarked entries are inactive.

- Assay: 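Regulators linking TLR4 signalling to p65 nuclear translocation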 (primary screen)
- System: mouse RAW264.7 G9 macrophage reporter cells (GFP-p65, Tnf promoter-mCherry)
- Reagent: siRNA pool against mouse genes, 100 nM
- Timing: 2 days siRNA transfection, then 40 min LPS before fixation
- Treatment: LPS (Salmonella minnesota R595) at 10 ng/ml
- Measured: 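Imaged p65 nuclear translocation ratio, normalised to the plate median, converted to robust z-scores and averaged across two replicates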
- Scale: p65 translocation robust z-score: higher = more nuclear NF-kappaB p65 after LPS than the plate median; nuclear/cytoplasmic p65 ratio: higher = more nuclear NF-kappaB p65
- Hit rule: 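Called active when z exceeds 3.3 or falls under -1.56 (median of Tlr4 controls), giving activity score of at least 50; no calls for control wells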
- Meaning of the calls: active = hit (p65 shift raised or lowered); inactive = no clear change

p65 translocation robust z-score | nuclear/cytoplasmic p65 ratio, rep 1 | nuclear/cytoplasmic p65 ratio, rep 2 | low cell count flag | Gene
– | 1.03 | 1.19 | fewer than 50 cells per well; well left out of scoring | Slitrk5 (GeneID 75409)
1.14 | 1.66 | 1.7 | enough cells to score | Tac1 (GeneID 21333)
-0.73 | 1.21 | 1.17 | enough cells to score | Timm44 (GeneID 21856)
0.84 | 1.72 | 1.96 | enough cells to score | Rwdd4a (GeneID 192174)
1.72 | 1.61 | 1.75 | enough cells to score | Pkp4 (GeneID 227937)
-1.17 | 1.64 | 1.38 | enough cells to score | Mrpl24 (GeneID 67707)
0.43 | 1.46 | 1.31 | enough cells to score | Yars1 (GeneID 107271)
-0.69 | 1.37 | 1.31 | enough cells to score | Kcnk13 (GeneID 217826)
-0.09 | 1.25 | 1.29 | enough cells to score | Ccdc157 (GeneID 216516)
-1.27 | 1.35 | 1.61 | enough cells to score | Vcf1 (GeneID 28081)
-0.51 | 1.37 | 1.34 | enough cells to score | Ins2 (GeneID 16334)
– | 1.48 | 1.58 | fewer than 50 cells per well; well left out of scoring | Hspa14 (GeneID 50497)
-0.96 | 1.2 | 1.19 | enough cells to score | Rnpepl1 (GeneID 108657)
-1.53 | 1.4 | 1.27 | enough cells to score | Siah1a (GeneID 20437)
0.2 | 1.54 | 1.36 | enough cells to score | Cbx5 (GeneID 12419)
-1.36 | 1.24 | 1.09 | enough cells to score | Zfp57 (GeneID 22715)
– | 1.33 | 1.17 | fewer than 50 cells per well; well left out of scoring | 2900026A02Rik (GeneID 243219)
-0.61 | 1.49 | 1.55 | enough cells to score | Aox4 (GeneID 71872)
-1.72 (active) | 1.17 | 1.19 | enough cells to score | Gatm (GeneID 67092)
1.24 | 1.48 | 1.41 | enough cells to score | Raet1e (GeneID 379043)
– | 1.32 | 1.2 | fewer than 50 cells per well; well left out of scoring | Or5b99 (GeneID 258700)
2.01 | 1.7 | 1.45 | enough cells to score | Spp2 (GeneID 75396)
0.27 | 1.48 | 1.27 | enough cells to score | Phc3 (GeneID 241915)
0.26 | 1.41 | 1.31 | enough cells to score | Selenom (GeneID 114679)
-0.25 | 1.4 | 1.36 | enough cells to score | Il11ra1 (GeneID 16157)
0.4 | 1.74 | 1.45 | enough cells to score | Chrm1 (GeneID 12669)
-0.03 | 1.25 | 1.41 | enough cells to score | Tufm (GeneID 233870)
– | 1.05 | 1.2 | fewer than 50 cells per well; well left out of scoring | Psmg2 (GeneID 107047)
0.08 | 1.52 | 1.59 | enough cells to score | Slc39a4 (GeneID 72027)
– | 1.18 | 1.09 | fewer than 50 cells per well; well left out of scoring | Plxnb2 (GeneID 140570)
-0.68 | 1.58 | 1.35 | enough cells to score | Impact (GeneID 16210)
– | 1.32 | 1.46 | fewer than 50 cells per well; well left out of scoring | Ssu72 (GeneID 68991)
– | 1.3 | 1.46 | fewer than 50 cells per well; well left out of scoring | Plekha8 (GeneID 231999)
1.01 | 1.75 | 1.78 | enough cells to score | Asl (GeneID 109900)
-0.21 | 1.51 | 1.36 | enough cells to score | Ripk4 (GeneID 72388)
0.2 | 1.46 | 1.46 | enough cells to score | Mterf3 (GeneID 66410)
-0.71 | 1.35 | 1.12 | enough cells to score | Rpl38 (GeneID 67671)
0.21 | 1.84 | 1.32 | enough cells to score | Pik3c2b (GeneID 240752)
1.14 | 1.64 | 1.69 | enough cells to score | Trim13 (GeneID 66597)
2.24 | 1.65 | 1.19 | enough cells to score | Tas2r104 (GeneID 387340)
0.3 | 1.65 | 1.55 | enough cells to score | Or4k52 (GeneID 258891)
-2.03 (active) | 1.33 | 1.31 | enough cells to score | Mkln1 (GeneID 27418)
-1.3 | 1.37 | 1.58 | enough cells to score | Setd3 (GeneID 52690)
– | 1.15 | 1.25 | fewer than 50 cells per well; well left out of scoring | Hypk (GeneID 67693)
0.7 | 1.67 | 1.64 | enough cells to score | Zc3hav1l (GeneID 209032)
-2.11 (active) | 1.18 | 1.09 | enough cells to score | Slc35d2 (GeneID 70484)
0.63 | 1.54 | 1.31 | enough cells to score | Or8d1b (GeneID 258433)
-0.59 | 1.45 | 1.79 | enough cells to score | BC016579 (GeneID 212998)
-1.49 | 1.59 | 1.24 | enough cells to score | Luc7l (GeneID 66978)
-0.03 | 1.66 | 1.32 | enough cells to score | Ipp (GeneID 16351)
0.05 | 1.48 | 1.19 | enough cells to score | Snx19 (GeneID 102607)
-0.76 | 1.52 | 1.48 | enough cells to score | Gcsh (GeneID 68133)
-0.93 | 1.41 | 1.68 | enough cells to score | Clca3a1 (GeneID 12722)
1.35 | 1.53 | 1.74 | enough cells to score | Aatk (GeneID 11302)
– | 1.33 | 1.33 | fewer than 50 cells per well; well left out of scoring | Necab2 (GeneID 117148)
0.05 | 1.57 | 1.56 | enough cells to score | Ferry3 (GeneID 28040)
– | 1.41 | 1.28 | fewer than 50 cells per well; well left out of scoring | Or5p60 (GeneID 258492)
0.15 | 1.53 | 1.38 | enough cells to score | Oas2 (GeneID 246728)
0.18 | 1.66 | 1.82 | enough cells to score | Fam20a (GeneID 208659)

Active calls, among the entries above:
p65 translocation robust z-score | nuclear/cytoplasmic p65 ratio, rep 1 | nuclear/cytoplasmic p65 ratio, rep 2 | low cell count flag | Gene
-1.72 (active) | 1.17 | 1.19 | enough cells to score | Gatm (GeneID 67092)
-2.03 (active) | 1.33 | 1.31 | enough cells to score | Mkln1 (GeneID 27418)
-2.11 (active) | 1.18 | 1.09 | enough cells to score | Slc35d2 (GeneID 70484)
